# Measurements reported in PubChem BioAssay AID330 (DTP/NCI, 2004).
# The list shows only some results of the screen, not a fair sample: it is rich in T/C values a quarter to a half above the control, in often repeated tests (any T/C) and in doses without a T/C. Further doses and runs are listed elsewhere. T/C gives the treated animals as a percentage of the vehicle group. Some doses have a count of surviving animals in place of a T/C: the source holds a T/C of zero for them, seemingly a mark for toxic or unscored doses. Some survivor counts are full or nearly so, which does not show that the dose was tolerated: survival well below the control is almost never listed, so the zero probably covers shortened survival too. Counts of survivors are from the toxicity check (mostly the fifth day) where no day follows; animals may have died later. Schedules are NCI's codes, taken here to give the interval after Q, in days (D) or hours (H), and the number of doses after X. Some entries hold several experiments; the values are given in rising order. Where survival is the endpoint, this PubChem deposit counts one and a half times the control or more as active, and values a quarter to a half above the control carry no call in these data; other NCI protocols may use other cut-offs.
# Test system: P388 leukemia ip, CD2F1 mice, survival T/C
# Assay: NCI In Vivo Anticancer Drug Screen. Data for tumor model P388 Leukemia (intraperitoneal) in CD2F1 (CDF1) mice
# Details: T/C endpoint: median survival time, higher T/C = longer survival
# [1] = dose: 60.0 mg/kg/injection, schedule: Q01DX009 (ip), vehicle: saline + alcohol
# [2] = dose: 200.0 mg/kg/injection, schedule: Q04DX003 (ip), vehicle: saline with Tween-80
# [3] = dose: 400.0 mg/kg/injection, schedule: Q04DX002 (ip), vehicle: saline
# [4] = dose: 100.0 mg/kg/injection, schedule: Q01DX005 (ip), vehicle: saline with Tween-80
# [5] = dose: 200.0 mg/kg/injection, schedule: Q01DX005 (ip), vehicle: saline with Tween-80
compound,measurement,setting,value
CC(=O)C1=C(O)C2(O)C(=O)c3c(c(C)c4ccc(C)c(O)c4c3O)CC2C(N)C1=O (stereo unspecified),T/C,"dose: 15.0 mg/kg/injection, schedule: Q01DX009 (ip), vehicle: saline + alcohol",130 and 134 % of control
same,T/C,"dose: 30.0 mg/kg/injection, schedule: Q01DX009 (ip), vehicle: saline + alcohol",132 and 140 % of control
same,T/C,[1],142 and 149 % of control
same,survivor count,[1],2 of 6
same,survivor count,"dose: 120.0 mg/kg/injection, schedule: Q01DX009 (ip), vehicle: saline + alcohol",2 of 6
same,survivor count,[2],3 of 6
Cc1cc2nc(Cc3nc4cc(C)c(C)cc4[nH]3)[nH]c2cc1C,survivor count,"dose: 400.0 mg/kg/injection, schedule: Q01DX009 (ip), vehicle: saline with Tween-80",5 of 6
O=C(CCCc1ccc(N2C(=O)C=CC2=O)cc1)ON1C(=O)CCC1=O,survivor count,"dose: 50.0 mg/kg/injection, schedule: Q04DX002 (ip), vehicle: saline with Tween-80",2 of 5
same,survivor count,"dose: 100.0 mg/kg/injection, schedule: Q04DX002 (ip), vehicle: saline with Tween-80",0 of 5
same,survivor count,"dose: 200.0 mg/kg/injection, schedule: Q04DX002 (ip), vehicle: saline with Tween-80",0 of 5
same,survivor count,"dose: 400.0 mg/kg/injection, schedule: Q04DX002 (ip), vehicle: saline with Tween-80",0 of 5
CC(C(=O)O)S(=O)(=O)C(C)C(=O)O (stereo unspecified),survivor count,[3],3 of 6
S=P1(c2ccccc2)C=C(N2CCCC2)CC1 (stereo unspecified),survivor count,"dose: 50.0 mg/kg/injection, schedule: Q01DX009 (ip), vehicle: saline",6 of 6
CC1=NCCc2cc3c(cc21)OCO3,survivor count,"dose: 100.0 mg/kg/injection, schedule: Q01DX001 (ip), vehicle: saline + alcohol",0 of 6
CC1CC[P+](c2ccccc2)(c2ccccc2)c2c1ccc1ccccc21 (stereo unspecified),survivor count,"dose: 25.0 mg/kg/injection, schedule: Q04DX002 (ip), vehicle: saline",6 of 6
same,survivor count,"dose: 50.0 mg/kg/injection, schedule: Q04DX002 (ip), vehicle: saline",2 of 6
same,survivor count,"dose: 100.0 mg/kg/injection, schedule: Q04DX002 (ip), vehicle: saline",0 of 6
same,survivor count,"dose: 200.0 mg/kg/injection, schedule: Q04DX002 (ip), vehicle: saline",0 of 6
same,survivor count,[3],0 of 6
CCCCCCC(=O)/C=C/c1ccccc1OC(=O)c1ccc(Cl)cc1,survivor count,"dose: 100.0 mg/kg/injection, schedule: Q01DX009 (ip), vehicle: saline with Tween-80",6 of 6
Cc1cc(/C=C\c2ccc3ccccc3[n+]2C)c(O)c2ncccc12,survivor count,"dose: 50.0 mg/kg/injection, schedule: Q01DX009 (ip), vehicle: saline with Tween-80",2 of 6
CCOC(=O)c1conc1C,survivor count,"dose: 100.0 mg/kg/injection, schedule: Q01DX009 (ip), vehicle: saline",1 of 6
same,survivor count,"dose: 200.0 mg/kg/injection, schedule: Q01DX009 (ip), vehicle: saline",0 of 6
O=C(CC(Br)C(=O)c1ccccc1)c1ccccc1 (stereo unspecified),T/C,"dose: 100.0 mg/kg/injection, schedule: Q04DX003 (ip), vehicle: saline with Tween-80",136 % of control
same,T/C,[2],136 % of control
same,T/C,"dose: 400.0 mg/kg/injection, schedule: Q04DX003 (ip), vehicle: saline with Tween-80",136 % of control
CCCCCCCCCCCC[S+](C)CCCCCCCC (stereo unspecified),T/C,"dose: 1.56 mg/kg/injection, schedule: Q01DX005 (ip), vehicle: saline with Tween-80",126 % of control
same,T/C,"dose: 3.13 mg/kg/injection, schedule: Q01DX005 (ip), vehicle: saline with Tween-80",128 % of control
same,survivor count,"dose: 6.25 mg/kg/injection, schedule: Q01DX005 (ip), vehicle: saline with Tween-80",4 of 5 and 5 of 6
same,survivor count,"dose: 12.5 mg/kg/injection, schedule: Q01DX005 (ip), vehicle: saline with Tween-80",1 of 5
same,survivor count,"dose: 25.0 mg/kg/injection, schedule: Q01DX005 (ip), vehicle: saline with Tween-80",0 of 5
same,survivor count,"dose: 50.0 mg/kg/injection, schedule: Q01DX005 (ip), vehicle: saline with Tween-80",0 of 5
same,survivor count,[4],0 of 5
same,survivor count,[5],0 of 5
C=C1C(=O)OC2CC3(C)OC3CC/C(C)=C/C(OC(C)=O)C12 (stereo unspecified),survivor count,[4],2 of 5
same,survivor count,[5],0 of 5
